## Screening data

Data taken from PubChem BioAssay AID1159506, deposited by NCATS (2015).

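Genome-wide siRNA knockdown in TC32 Ewing sarcoma cells, comparing luciferase light from an NR0B1-promoter reporter with a CMV-promoter reporter 48 hours after transfection. Each siRNA was applied at 20 nM. A z-score of the log NR0B1-over-CMV signal, less the median of siRNAs with the same seed; more negative means a stronger specific loss of the NR0B1 reporter.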

The strongest results of the screen are mostly left out here. Sequences are the guide (antisense) strand, without overhang.

- AACUUUCCUGUAGAUAGUG against OBFC1 | seed-corrected z-score -1.163
- UAAUCAGCACUGAUGGUGG against FAM20A | seed-corrected z-score 1.133
- UUUUCAUACACGACAAAUG against GPR63 | seed-corrected z-score 0.1969
- AGACUAACCACAAAGUACC against FAR1 | seed-corrected z-score 0.8572
- AAGGGUUAAGAUGACAUCC against FRMPD4 | seed-corrected z-score 0.2959
- UUUGAUGUUCACCUGAUGC against TRIM16 | seed-corrected z-score -0.68
- UCUUUUACCAAUCCCACUG against ANO10 | seed-corrected z-score 0.07293
- AAUGUUCGUAGAGAGAGAG against TCF7 | seed-corrected z-score 0.1014
- UUGGUGAUGAGUGUCGUUC against CYP2D6 | seed-corrected z-score 0.5295
- AUAGCGAUCCGUCAAGUGC against TMEM63C | seed-corrected z-score 0.08259
- UUGGGAUACAGCGAUGUCA against SPATA12 | seed-corrected z-score 0.9303
- UUACUUCAAGGUAUCGCCC against MOV10L1 | seed-corrected z-score 0.5386
- AAUUAAUUCACAUUUGGUG against KRTAP4-7 | seed-corrected z-score 0.102
- AGAUGUGAGAGCUCUCUCC against PPT1 | seed-corrected z-score -0.001786
- UUUUAUCCCAGCACAAAGG against ITLN2 | seed-corrected z-score -0.2009
- AAUGGGUAUGCGGAUAUUU against GDF11 | seed-corrected z-score 0.1369
- UCUUGUCGAACAGCAAAUC against IMPA2 | seed-corrected z-score -0.002908
- AAUUUGUUGAGCUUAGUGG against KIAA1958 | seed-corrected z-score 2.483
- UCUAGAACACUGAUCAGCC against IDI1 | seed-corrected z-score 0.5746
- AAUGCGACGAUAAACAUCC against TJP1 | seed-corrected z-score 0.884
- UCUCAUUGUUCUGUAAUGG against ABCD3 | seed-corrected z-score 1.112
- AUUGUAACUGGAUUGUUUG against CD3EAP | seed-corrected z-score 0.2117
- UGAUCUAGGAGCACUCUGC against NODAL | seed-corrected z-score -0.6859
- UAAGAGGUAAGAACCGGCU against TST | seed-corrected z-score -0.2391
- AAUUGUAGCUGAACUAUUC against STAU2 | seed-corrected z-score 1.038
- UCAGACACCUUGUGGACCC against BEGAIN | seed-corrected z-score 1.551
- UCUCCGUUCAUUGAUUGGG against SMC5 | seed-corrected z-score -0.9707
- UUAUCAGCAGCUAAGGAGC against HSD17B4 | seed-corrected z-score -0.08161
- AGCUGUUUACCCAUGAUCU against OR8S1 | seed-corrected z-score 1.361
- UGUGAAACUGGUGAUAUAC against KCNJ13 | seed-corrected z-score -0.9151
- UCUUCGUCUUCUUGGUUGC against RASGRF2 | seed-corrected z-score -0.8056
- UUGGUAAAAAGUCAAGUAG against FAM46D | seed-corrected z-score 0.4217
- AGAAGUAAUAGGAUCCUGC against H2AFVP1 | seed-corrected z-score 2.009
- AAACCCACCACUAAAAUGA against OR6Q1 | seed-corrected z-score 0.07342
- UUAGCUACCUGGUCCUUGG against HSP90AA1 | seed-corrected z-score -0.7185
- UUAGUUCCAUGUGCCGUGG against SLC7A14 | seed-corrected z-score 0.1832
- UAUUAAACAGGAGCCUCGC against DCTD | seed-corrected z-score 0.512
- GAUCUUCUCAUAAUCAAUC against COMMD4 | seed-corrected z-score 0.2447
- UGAGUUGUAAGGAUCUAGG against DCBLD2 | seed-corrected z-score 0.58
- UCCCUUUACAUCGAAGCUC against PDGFRL | seed-corrected z-score -0.27
- UCAGCUGACACCAAGCAAU against CIAO1 | seed-corrected z-score 0.1211
- UGAAGUAUAAGGUACAAGG against NUP62CL | seed-corrected z-score 1.028
- UCCAUGACAACACUUACUG against C1QTNF3 | seed-corrected z-score 0.1012
- AUGGUUAUAGUGGAUGAGC against CA10 | seed-corrected z-score -0.1594
- UAUGGUAACACGGUUGACU against PABPN1 | seed-corrected z-score -0.08489
- UUUAUUAGCAAGCCCAGCC against ZNF628 | seed-corrected z-score -0.4839
- UUACCUUUGAUCUGAAUUA against ZNF600 | seed-corrected z-score -0.545
- UCUUCGUUUAAAGCUGUGG against XAGE5 | seed-corrected z-score -0.8109
- UUCCUUAUAAGCAAGGAGC against MANSC1 | seed-corrected z-score -0.7939
- AAUGGAAAAUGCUAAGAAC against TMEM120B | seed-corrected z-score 0.6659
- UGAAAAAUUGAUAUACCUG against PRICKLE3 | seed-corrected z-score -0.1516
- UCAGUUCAAAGUGGUUGCU against AGRN | seed-corrected z-score -0.2336
- UAGGUUUUCAUCCAUUUCA against SNAP25 | seed-corrected z-score 1.133

The first 3 entries again:

AACUUUCCUGUAGAUAGUG against OBFC1 read seed-corrected z-score -1.163.
UAAUCAGCACUGAUGGUGG against FAM20A read seed-corrected z-score 1.133.
UUUUCAUACACGACAAAUG against GPR63 read seed-corrected z-score 0.1969.